# This is one part of the list. Hit calls seldom repeat between salt and free forms of one compound.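 In K562 cells expressing nanoluciferase-fused kinases, luminescence was recorded at 4 h intervals between 2 and 18 h, normalized as percent of control with DMSO at 100% and a positive control at 0%. A significant (2 sigma) signal drop marks a time point as decreased. The authors' rule for a hit is not shown and takes in more than the number of time points.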
# Amino acid sequences for entries named in this document (tags omitted). A change or cut given only in a name is not applied to a line headed by its entry.
# UniProt Q01974, whole entry: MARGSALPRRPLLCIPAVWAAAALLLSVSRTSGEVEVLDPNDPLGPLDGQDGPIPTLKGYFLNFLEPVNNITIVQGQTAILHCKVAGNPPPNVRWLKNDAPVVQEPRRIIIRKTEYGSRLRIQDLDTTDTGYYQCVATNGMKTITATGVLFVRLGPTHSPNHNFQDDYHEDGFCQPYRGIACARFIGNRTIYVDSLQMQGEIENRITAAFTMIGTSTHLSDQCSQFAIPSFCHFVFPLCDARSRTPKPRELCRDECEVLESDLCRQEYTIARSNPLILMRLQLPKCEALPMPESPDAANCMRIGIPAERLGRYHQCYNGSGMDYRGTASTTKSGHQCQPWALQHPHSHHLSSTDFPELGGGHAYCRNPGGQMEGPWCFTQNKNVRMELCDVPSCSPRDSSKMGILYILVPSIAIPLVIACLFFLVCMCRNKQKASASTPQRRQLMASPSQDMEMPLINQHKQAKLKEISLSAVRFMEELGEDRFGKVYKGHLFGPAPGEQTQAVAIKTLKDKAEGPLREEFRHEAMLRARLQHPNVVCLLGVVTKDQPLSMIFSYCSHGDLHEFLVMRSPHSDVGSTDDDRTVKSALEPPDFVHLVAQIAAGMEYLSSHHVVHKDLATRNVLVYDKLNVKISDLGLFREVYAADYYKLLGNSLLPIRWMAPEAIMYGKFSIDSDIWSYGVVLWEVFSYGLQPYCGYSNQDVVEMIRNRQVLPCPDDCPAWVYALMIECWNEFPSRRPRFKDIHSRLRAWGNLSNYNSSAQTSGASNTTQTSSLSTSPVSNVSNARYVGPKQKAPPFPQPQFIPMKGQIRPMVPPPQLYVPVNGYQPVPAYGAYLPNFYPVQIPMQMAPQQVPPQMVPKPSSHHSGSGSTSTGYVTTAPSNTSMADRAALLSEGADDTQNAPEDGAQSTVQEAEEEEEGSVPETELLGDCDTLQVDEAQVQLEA
# UniProt Q15418, whole entry: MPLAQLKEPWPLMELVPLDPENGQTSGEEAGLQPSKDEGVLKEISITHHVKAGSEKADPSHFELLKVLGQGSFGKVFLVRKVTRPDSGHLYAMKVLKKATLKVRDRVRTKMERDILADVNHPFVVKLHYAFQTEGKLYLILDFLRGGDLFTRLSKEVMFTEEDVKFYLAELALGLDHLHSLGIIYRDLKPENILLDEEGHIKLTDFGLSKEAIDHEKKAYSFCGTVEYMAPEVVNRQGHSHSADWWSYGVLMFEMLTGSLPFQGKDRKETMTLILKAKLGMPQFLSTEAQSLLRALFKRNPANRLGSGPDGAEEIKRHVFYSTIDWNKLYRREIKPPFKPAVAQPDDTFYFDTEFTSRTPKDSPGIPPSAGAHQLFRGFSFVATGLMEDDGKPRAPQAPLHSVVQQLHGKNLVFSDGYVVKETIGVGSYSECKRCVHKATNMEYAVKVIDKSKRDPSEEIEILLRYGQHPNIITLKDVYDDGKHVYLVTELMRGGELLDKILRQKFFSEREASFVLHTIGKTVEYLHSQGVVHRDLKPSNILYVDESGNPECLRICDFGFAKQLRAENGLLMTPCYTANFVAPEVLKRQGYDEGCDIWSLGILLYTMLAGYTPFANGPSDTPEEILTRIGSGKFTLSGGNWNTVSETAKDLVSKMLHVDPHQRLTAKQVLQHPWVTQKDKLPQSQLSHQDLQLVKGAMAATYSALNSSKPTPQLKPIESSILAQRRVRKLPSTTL
# UniProt Q9NYA1, whole entry: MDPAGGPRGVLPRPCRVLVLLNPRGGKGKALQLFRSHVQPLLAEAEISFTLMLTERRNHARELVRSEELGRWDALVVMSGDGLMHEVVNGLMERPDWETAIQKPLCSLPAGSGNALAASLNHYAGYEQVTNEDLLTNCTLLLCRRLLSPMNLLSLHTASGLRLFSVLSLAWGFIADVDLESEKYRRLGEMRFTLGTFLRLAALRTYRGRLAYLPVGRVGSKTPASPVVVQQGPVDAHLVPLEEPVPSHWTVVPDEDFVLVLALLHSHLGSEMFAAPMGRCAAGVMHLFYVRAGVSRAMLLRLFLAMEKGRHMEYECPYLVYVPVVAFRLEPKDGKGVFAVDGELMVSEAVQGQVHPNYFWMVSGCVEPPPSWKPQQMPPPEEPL
# UniProt Q9Y6E0: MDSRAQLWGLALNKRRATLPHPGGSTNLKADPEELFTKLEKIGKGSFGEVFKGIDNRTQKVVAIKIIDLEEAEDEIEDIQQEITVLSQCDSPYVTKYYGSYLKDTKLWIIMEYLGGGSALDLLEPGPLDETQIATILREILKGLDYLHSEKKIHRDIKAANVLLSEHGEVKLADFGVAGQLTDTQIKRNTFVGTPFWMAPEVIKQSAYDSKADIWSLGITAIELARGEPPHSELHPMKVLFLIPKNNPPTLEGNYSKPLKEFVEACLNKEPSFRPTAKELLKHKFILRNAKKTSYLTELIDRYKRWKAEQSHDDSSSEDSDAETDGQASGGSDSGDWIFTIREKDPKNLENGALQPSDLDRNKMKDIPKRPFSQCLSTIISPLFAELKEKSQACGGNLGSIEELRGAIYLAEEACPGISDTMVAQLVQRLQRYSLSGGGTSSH
# UniProt Q15208: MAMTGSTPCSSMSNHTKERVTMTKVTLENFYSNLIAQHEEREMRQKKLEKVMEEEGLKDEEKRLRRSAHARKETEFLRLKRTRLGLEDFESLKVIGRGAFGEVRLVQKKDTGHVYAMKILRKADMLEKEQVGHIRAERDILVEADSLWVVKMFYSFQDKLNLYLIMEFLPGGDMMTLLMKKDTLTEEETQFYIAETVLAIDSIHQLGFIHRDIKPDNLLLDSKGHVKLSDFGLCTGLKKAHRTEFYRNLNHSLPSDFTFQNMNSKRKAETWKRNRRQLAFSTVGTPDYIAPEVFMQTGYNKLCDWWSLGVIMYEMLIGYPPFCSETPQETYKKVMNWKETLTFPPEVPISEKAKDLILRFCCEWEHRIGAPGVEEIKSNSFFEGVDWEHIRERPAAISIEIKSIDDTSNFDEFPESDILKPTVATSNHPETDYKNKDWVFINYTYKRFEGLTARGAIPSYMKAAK
# UniProt P42680: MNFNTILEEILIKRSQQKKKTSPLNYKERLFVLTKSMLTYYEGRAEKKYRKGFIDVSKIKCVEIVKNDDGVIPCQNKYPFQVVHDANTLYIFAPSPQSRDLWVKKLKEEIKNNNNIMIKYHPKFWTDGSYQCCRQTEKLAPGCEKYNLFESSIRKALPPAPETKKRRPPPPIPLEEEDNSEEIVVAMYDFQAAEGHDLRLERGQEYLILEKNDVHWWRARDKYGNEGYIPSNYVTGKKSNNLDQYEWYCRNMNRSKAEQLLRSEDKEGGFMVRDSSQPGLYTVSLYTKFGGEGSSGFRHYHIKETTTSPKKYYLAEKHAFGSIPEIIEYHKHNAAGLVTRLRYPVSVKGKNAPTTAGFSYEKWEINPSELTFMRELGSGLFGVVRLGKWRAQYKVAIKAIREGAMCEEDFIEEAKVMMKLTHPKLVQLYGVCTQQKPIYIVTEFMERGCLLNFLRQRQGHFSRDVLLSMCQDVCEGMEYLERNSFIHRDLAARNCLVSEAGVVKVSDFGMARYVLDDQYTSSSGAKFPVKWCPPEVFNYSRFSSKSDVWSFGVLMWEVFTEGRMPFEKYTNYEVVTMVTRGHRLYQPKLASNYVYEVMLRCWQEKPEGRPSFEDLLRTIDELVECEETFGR
# UniProt P29597: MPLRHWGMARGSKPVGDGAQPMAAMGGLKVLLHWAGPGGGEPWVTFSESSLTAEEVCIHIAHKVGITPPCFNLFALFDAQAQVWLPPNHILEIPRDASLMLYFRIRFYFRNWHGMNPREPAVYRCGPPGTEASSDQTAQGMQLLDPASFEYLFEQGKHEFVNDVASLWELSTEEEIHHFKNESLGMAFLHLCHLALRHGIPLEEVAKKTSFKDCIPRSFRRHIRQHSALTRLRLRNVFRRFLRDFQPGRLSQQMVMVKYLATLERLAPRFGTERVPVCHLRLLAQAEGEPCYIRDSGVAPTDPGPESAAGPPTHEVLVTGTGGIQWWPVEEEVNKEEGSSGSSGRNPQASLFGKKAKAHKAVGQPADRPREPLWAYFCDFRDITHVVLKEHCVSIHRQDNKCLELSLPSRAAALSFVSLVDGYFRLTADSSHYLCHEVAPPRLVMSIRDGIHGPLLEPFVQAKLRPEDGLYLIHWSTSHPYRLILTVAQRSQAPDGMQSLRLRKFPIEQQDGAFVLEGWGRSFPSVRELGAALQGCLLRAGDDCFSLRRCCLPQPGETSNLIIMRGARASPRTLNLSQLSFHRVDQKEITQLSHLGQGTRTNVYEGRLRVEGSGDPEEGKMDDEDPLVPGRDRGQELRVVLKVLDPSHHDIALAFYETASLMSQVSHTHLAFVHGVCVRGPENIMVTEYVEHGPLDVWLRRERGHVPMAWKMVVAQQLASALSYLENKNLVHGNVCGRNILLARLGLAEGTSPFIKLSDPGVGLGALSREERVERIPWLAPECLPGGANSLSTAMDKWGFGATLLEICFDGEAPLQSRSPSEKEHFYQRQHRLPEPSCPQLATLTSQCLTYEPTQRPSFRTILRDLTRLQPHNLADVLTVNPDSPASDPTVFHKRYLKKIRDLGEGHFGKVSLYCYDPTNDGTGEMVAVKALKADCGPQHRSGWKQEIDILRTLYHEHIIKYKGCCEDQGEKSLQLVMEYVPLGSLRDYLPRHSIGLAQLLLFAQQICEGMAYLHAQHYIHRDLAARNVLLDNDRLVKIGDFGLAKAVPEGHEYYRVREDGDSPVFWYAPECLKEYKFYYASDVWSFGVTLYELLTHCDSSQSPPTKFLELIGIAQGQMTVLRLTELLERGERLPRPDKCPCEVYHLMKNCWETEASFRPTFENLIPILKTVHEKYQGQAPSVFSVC
# UniProt Q6PHR2: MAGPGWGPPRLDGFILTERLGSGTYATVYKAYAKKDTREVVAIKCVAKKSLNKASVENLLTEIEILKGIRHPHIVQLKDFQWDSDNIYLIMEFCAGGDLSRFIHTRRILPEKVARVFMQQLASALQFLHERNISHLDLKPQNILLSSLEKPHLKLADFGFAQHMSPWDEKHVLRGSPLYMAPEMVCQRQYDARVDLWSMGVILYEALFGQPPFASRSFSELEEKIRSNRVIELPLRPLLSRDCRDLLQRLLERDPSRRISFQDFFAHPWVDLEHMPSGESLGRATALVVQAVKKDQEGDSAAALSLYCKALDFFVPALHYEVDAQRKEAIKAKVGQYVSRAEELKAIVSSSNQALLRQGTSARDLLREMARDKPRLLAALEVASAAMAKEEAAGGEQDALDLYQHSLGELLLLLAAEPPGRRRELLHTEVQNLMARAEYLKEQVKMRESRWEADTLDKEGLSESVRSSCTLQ
# Experiments:
# Experiment in all cases: number of time points (of 5) at which kinase-Nluc abundance scored as decreased, DMSO-normalised (count); higher = more persistent destabilization
# Details in all cases: K562; 2-18 h
# ROR2 = ROR2 (UniProt Q01974)
# RPS6KA1 = RPS6KA1 (UniProt Q15418)
# SPHK1 = SPHK1 (UniProt Q9NYA1)
# SRC = SRC (UniProt P12931)
# STK24 = STK24 (UniProt Q9Y6E0)
# STK38 = STK38 (UniProt Q15208)
# SYK = SYK (UniProt P43405)
# TEC = TEC (UniProt P42680)
# TYK2 = TYK2 (UniProt P29597)
# ULK3 = ULK3 (UniProt Q6PHR2)
compound,measurement,setting,value
Cc1ccccc1-n1c(Cn2cnc3c(N)ncnc32)nc2cccc(C)c2c1=O (10 µM),number of time points,ROR2,0
same,number of time points,RPS6KA1,0
same,number of time points,SPHK1,0
same,number of time points,SRC,0
same,number of time points,STK24,0
same,number of time points,STK38,0
same,number of time points,SYK,0
same,number of time points,TEC,0
same,number of time points,TYK2,0
same,number of time points,ULK3,0
O=C(N[C@@H](COc1ccc2[nH]c(=O)[nH]c2c1)c1ccccc1)c1cccn(Cc2ccc(F)c(F)c2)c1=O (2.5 µM),number of time points,ROR2,0
same,number of time points,RPS6KA1,0
same,number of time points,SPHK1,0
same,number of time points,SRC,0
same,number of time points,STK24,0
same,number of time points,STK38,0
same,number of time points,SYK,0
same,number of time points,TEC,0
same,number of time points,TYK2,0
same,number of time points,ULK3,0
Cn1cc(C2=C(c3cn(C4CCN(Cc5ccccn5)CC4)c4ccccc34)C(=O)NC2=O)c2ccccc21 [Enzastaurin] (10 µM),number of time points,ROR2,0
same,number of time points,RPS6KA1,0
same,number of time points,SPHK1,0
same,number of time points,SRC,0
same,number of time points,STK24,1
same,number of time points,STK38,0
same,number of time points,SYK,0
same,number of time points,TEC,0
same,number of time points,TYK2,0
same,number of time points,ULK3,0
O=C(O)c1sc2cc(Cl)ccc2c1Cl (10 µM),number of time points,ROR2,0
same,number of time points,RPS6KA1,0
same,number of time points,SPHK1,0
same,number of time points,SRC,0
same,number of time points,STK24,0
same,number of time points,STK38,0
same,number of time points,SYK,0
same,number of time points,TEC,0
same,number of time points,TYK2,0
same,number of time points,ULK3,0
CC(=O)O[C@H]1[C@H]2[C@@H](OC(=O)Cc3ccccc3)[C@@H](C)C[C@]2(OC(C)=O)C(=O)/C(C)=C/[C@@H]2[C@H](CC[C@@]13CO3)C2(C)C [Euphorbiasteroid] (10 µM),number of time points,ROR2,0
same,number of time points,RPS6KA1,0
same,number of time points,SPHK1,1
same,number of time points,SRC,0
same,number of time points,STK24,0
same,number of time points,STK38,0
same,number of time points,SYK,0
same,number of time points,TEC,0
same,number of time points,TYK2,0
same,number of time points,ULK3,0
CC(=O)OC(C)(C)/C=C/C(=O)[C@](C)(O)[C@H]1[C@H](O)C[C@@]2(C)[C@@H]3CC=C4[C@@H](C=C(O)C(=O)C4(C)C)[C@]3(C)C(=O)C[C@]12C [Cucurbitacin E] (2.5 µM),number of time points,ROR2,0
same,number of time points,RPS6KA1,0
same,number of time points,SPHK1,0
same,number of time points,SRC,0
same,number of time points,STK24,0
same,number of time points,STK38,0
same,number of time points,SYK,0
same,number of time points,TEC,1
same,number of time points,TYK2,4
same,number of time points,ULK3,0
CCCCCCCCCCCCCCCCOC[C@H](COP(=O)([O-])OCC[N+](C)(C)C)OC(C)=O (10 µM),number of time points,ROR2,0
same,number of time points,RPS6KA1,1
same,number of time points,SPHK1,0
same,number of time points,SRC,0
same,number of time points,STK24,0
same,number of time points,STK38,0
same,number of time points,SYK,0
same,number of time points,TEC,0
same,number of time points,TYK2,0
same,number of time points,ULK3,0
Cc1[nH]ncc1-c1cc2nc([C@H]3CC4CCN3CC4)[nH]c(=O)c2s1 [(R)-Simurosertib] (10 µM),number of time points,ROR2,0
same,number of time points,RPS6KA1,0
same,number of time points,SPHK1,0
same,number of time points,SRC,0
same,number of time points,STK24,0
same,number of time points,STK38,0
same,number of time points,SYK,0
same,number of time points,TEC,0
same,number of time points,TYK2,0
same,number of time points,ULK3,0
C[C@H]1CC[C@]2(NC1)O[C@H]1C[C@H]3[C@@H]4CC[C@H]5C[C@@H](O)CC[C@]5(C)[C@H]4CC[C@]3(C)[C@H]1[C@@H]2C [Tomatidine] (2 µM),number of time points,ROR2,0
same,number of time points,RPS6KA1,0
same,number of time points,SPHK1,0
same,number of time points,SRC,0
same,number of time points,STK24,0
same,number of time points,STK38,0
same,number of time points,SYK,0
same,number of time points,TEC,0
same,number of time points,TYK2,0
same,number of time points,ULK3,0
CCN1CCN(C(=O)Cc2ccc(Nc3ncc(F)c(Nc4ccc(C(=O)Nc5ccccc5Cl)cc4)n3)cc2)CC1 (2.5 µM),number of time points,ROR2,0
same,number of time points,RPS6KA1,0
same,number of time points,SPHK1,0
same,number of time points,SRC,0
same,number of time points,STK24,0
same,number of time points,STK38,0
same,number of time points,SYK,0
same,number of time points,TEC,0
same,number of time points,TYK2,0
same,number of time points,ULK3,0
C=CC(=O)Nc1ccc2[nH]c(=O)n(C3CCN(Cc4ccc(-c5nc6cc[nH]c(=O)c6cc5-c5ccccc5)cc4)CC3)c2c1 [Borussertib] (10 µM),number of time points,ROR2,0
same,number of time points,RPS6KA1,0
same,number of time points,SPHK1,0
same,number of time points,SRC,0
same,number of time points,STK24,0
same,number of time points,STK38,0
same,number of time points,SYK,0
same,number of time points,TEC,0
same,number of time points,TYK2,1
same,number of time points,ULK3,0
NCCc1cn(S(=O)(=O)c2c(Cl)nc3sccn23)c2ccccc12 (10 µM),number of time points,ROR2,0
same,number of time points,RPS6KA1,0
same,number of time points,SPHK1,0
same,number of time points,SRC,0
same,number of time points,STK24,0
same,number of time points,STK38,0
same,number of time points,SYK,0
same,number of time points,TEC,0
same,number of time points,TYK2,0
same,number of time points,ULK3,0

# An excerpt of these results, as tab-separated lines:
compound	measurement	setting	value
Cc1ccccc1-n1c(Cn2cnc3c(N)ncnc32)nc2cccc(C)c2c1=O (10 µM)	number of time points	SPHK1	0
same	number of time points	SRC	0
same	number of time points	STK24	0
same	number of time points	STK38	0
same	number of time points	SYK	0
same	number of time points	TEC	0
same	number of time points	TYK2	0
same	number of time points	ULK3	0
O=C(N[C@@H](COc1ccc2[nH]c(=O)[nH]c2c1)c1ccccc1)c1cccn(Cc2ccc(F)c(F)c2)c1=O (2.5 µM)	number of time points	ROR2	0
same	number of time points	RPS6KA1	0
same	number of time points	SPHK1	0
same	number of time points	SRC	0
same	number of time points	STK24	0
same	number of time points	STK38	0
same	number of time points	SYK	0
same	number of time points	TEC	0
same	number of time points	TYK2	0
same	number of time points	ULK3	0
Cn1cc(C2=C(c3cn(C4CCN(Cc5ccccn5)CC4)c4ccccc34)C(=O)NC2=O)c2ccccc21 [Enzastaurin] (10 µM)	number of time points	ROR2	0
same	number of time points	RPS6KA1	0
same	number of time points	SPHK1	0
same	number of time points	SRC	0
same	number of time points	STK24	1

# From the supplement of paper PMC12823440, “Inhibitors supercharge kinase turnover through native proteolytic circuits” (Nature, 2025)
